In the supplement of paper PMC5949888:
Most values lie at the floor of the assay. Slopes are relative: functional sequences can read slightly below zero.

test system: Saccharomyces cerevisiae PS128 hsf1 delta, HSF1(1-493) fusion; test: growth estimate (transactivation domain function in HSF1 fusion, heat-shock survival) (a.u. (slope of normalised read count over time)); higher = stronger growth at 37°C, i.e. more transactivation activity; conditions: library: random library

Question: Which growth estimate does the source give for YNLANRYKRSSPPTKHLTLD here?
Answer: The growth estimate was < -0.25.

Question: How did the growth estimate turn out when YNLASWDVRQS was run?
Answer: Its growth estimate is < -0.25.

Question: YNPR was tested. Which growth estimate did it give?
Answer: Its growth estimate is < -0.25.

Question: How did the growth estimate turn out when YNSGRLGVGPSHPDGVVMAF was run?
Answer: Its growth estimate is < -0.25.

Question: With YPAEHEGLPPLTWRQRERAL as the substance, how does the growth estimate read?
Answer: Its growth estimate is < -0.25.

Question: For YPAQPRSRR, which growth estimate is on record?
Answer: The growth estimate was < -0.25.

Question: For YPGPEKVWRLIL, which growth estimate is on record?
Answer: The growth estimate was < -0.25.

Question: With YPIKLVRGLALWTLAL as the substance, how does the growth estimate read?
Answer: Its growth estimate is < -0.25.

Question: With YPIRTVSTEASQYVLARFPD as the substance, how does the growth estimate read?
Answer: Its growth estimate is < -0.25.

Question: YPLRP was tested. Which growth estimate did it give?
Answer: The growth estimate was < -0.25.

Question: For YPNPVSTHATISLIVVFVMR, which growth estimate is on record?
Answer: Its growth estimate is < -0.25.

Question: How did the growth estimate turn out when YPPLGFFGGRSVLQQTRQLP was run?
Answer: The growth estimate was < -0.25.

Question: How did the growth estimate turn out when YPPVRIQLAIHC was run?
Answer: The growth estimate was < -0.25.

Question: With YPQEGLKGVVLRICEEVCPP as the substance, how does the growth estimate read?
Answer: Its growth estimate is < -0.25.

Question: Which growth estimate does the source give for YPQSNLEKGVVISSSLTKLP here?
Answer: Its growth estimate is < -0.25.

Question: With YPRLYDSLTPII as the substance, how does the growth estimate read?
Answer: Its growth estimate is < -0.25.

Question: YPTPESVRTTCLGSVVLHCA was tested. Which growth estimate did it give?
Answer: The growth estimate was < -0.25.

Question: How did the growth estimate turn out when YPWDPAPMR was run?
Answer: The growth estimate was < -0.25.

Question: YPWPSHGVSKIPDTRFTTPH was tested. Which growth estimate did it give?
Answer: The growth estimate was < -0.25.

Question: With YPYIITAPYLGGVRH as the substance, how does the growth estimate read?
Answer: Its growth estimate is < -0.25.

Question: Which growth estimate does the source give for YPYVLAEDVAQNVLCCQQAH here?
Answer: Its growth estimate is < -0.25.

Question: For YQA, which growth estimate is on record?
Answer: The growth estimate was -0.246.

Question: Which growth estimate does the source give for YQDTHGRAVSIPVYLQYGQR here?
Answer: The growth estimate was < -0.25.

Question: With YQLKSTLVASGPHISVGVPA as the substance, how does the growth estimate read?
Answer: Its growth estimate is -0.246.

Question: Which growth estimate does the source give for YQPLGFDGSDTMDAFVMTLG here?
Answer: Its growth estimate is -0.102.

Question: With YQRRRLYHTLFMNSRWGTPD as the substance, how does the growth estimate read?
Answer: The growth estimate was < -0.25.

Question: For YQSDKLGGELFLAWRSSLKG, which growth estimate is on record?
Answer: The growth estimate was -0.245.

Question: With YQTGDFFYATRALLFPLGVY as the substance, how does the growth estimate read?
Answer: The growth estimate was < -0.25.

Question: For YQYVIWYQEEF, which growth estimate is on record?
Answer: The growth estimate was < -0.25.

Question: YRASQVAASAVCG was tested. Which growth estimate did it give?
Answer: The growth estimate was < -0.25.

Question: How did the growth estimate turn out when YRAVYWNKKRTGPLGGGSHG was run?
Answer: The growth estimate was < -0.25.

Question: YRCAQKIVP was tested. Which growth estimate did it give?
Answer: The growth estimate was < -0.25.

Question: How did the growth estimate turn out when YRCTRILQNSDPPSKFNIKS was run?
Answer: Its growth estimate is < -0.25.

Question: For YRDN, which growth estimate is on record?
Answer: The growth estimate was < -0.25.

Question: With YRELSITLRYSSKKMDSREY as the substance, how does the growth estimate read?
Answer: Its growth estimate is < -0.25.

Question: YRFPVGL was tested. Which growth estimate did it give?
Answer: Its growth estimate is < -0.25.

Question: How did the growth estimate turn out when YRFTKR was run?
Answer: Its growth estimate is < -0.25.

Question: For YRG, which growth estimate is on record?
Answer: The growth estimate was < -0.25.

Question: YRGDMKEPQWPDSRVERTRT was tested. Which growth estimate did it give?
Answer: The growth estimate was < -0.25.

Question: How did the growth estimate turn out when YRGLCLFRKIHVTS was run?
Answer: The growth estimate was < -0.25.

Question: How did the growth estimate turn out when YRGVRIY was run?
Answer: Its growth estimate is < -0.25.

Question: Which growth estimate does the source give for YRISRADCDESAVYNGLYQR here?
Answer: Its growth estimate is < -0.25.

Question: Which growth estimate does the source give for YRLIGSTKGIWVPFLYYLLR here?
Answer: Its growth estimate is < -0.25.

Question: For YRLL, which growth estimate is on record?
Answer: The growth estimate was < -0.25.

Question: With YRLV as the substance, how does the growth estimate read?
Answer: The growth estimate was < -0.25.

Question: How did the growth estimate turn out when YRLVLISPS was run?
Answer: Its growth estimate is < -0.25.

Question: YRNLIVRQVRILTRGPLRDL was tested. Which growth estimate did it give?
Answer: The growth estimate was < -0.25.

Question: For YRPPKYLR, which growth estimate is on record?
Answer: The growth estimate was < -0.25.

Question: With YRPRSYHPKDIFL as the substance, how does the growth estimate read?
Answer: Its growth estimate is < -0.25.

Question: How did the growth estimate turn out when YRPSV was run?
Answer: Its growth estimate is < -0.25.

Question: How did the growth estimate turn out when YRPVTIGNWFEVTLGGRELP was run?
Answer: The growth estimate was < -0.25.

Question: How did the growth estimate turn out when YRRRALKTEYEVPRTRTPGY was run?
Answer: Its growth estimate is -0.243.

Question: With YRSKADYHAEEYEVKLSAQC as the substance, how does the growth estimate read?
Answer: Its growth estimate is < -0.25.

Question: With YRSQCVVRILTECLAQPRRL as the substance, how does the growth estimate read?
Answer: Its growth estimate is < -0.25.

Question: How did the growth estimate turn out when YRSSP was run?
Answer: The growth estimate was < -0.25.

Question: For YRSSVVIEFSLKSKGCSVYG, which growth estimate is on record?
Answer: Its growth estimate is -0.246.

Question: For YRSVGV, which growth estimate is on record?
Answer: Its growth estimate is < -0.25.

Question: How did the growth estimate turn out when YRTEDLGQQLIGFGRMWHWE was run?
Answer: Its growth estimate is < -0.25.

Question: How did the growth estimate turn out when YRTLPLSLRVRFQARRALSR was run?
Answer: Its growth estimate is < -0.25.

Question: Which growth estimate does the source give for YRTRVQDAKHANPT here?
Answer: The growth estimate was < -0.25.

Question: YRW was tested. Which growth estimate did it give?
Answer: Its growth estimate is < -0.25.

Question: For YRWRTGTLAWIKS, which growth estimate is on record?
Answer: Its growth estimate is < -0.25.

Question: With YRWVVGYNVSGWDLGTLMNV as the substance, how does the growth estimate read?
Answer: The growth estimate was < -0.25.

Question: Which growth estimate does the source give for YSDSSGSKQARMEPPDSSQA here?
Answer: The growth estimate was < -0.25.

Question: For YSEC, which growth estimate is on record?
Answer: The growth estimate was < -0.25.

Question: Which growth estimate does the source give for YSEGGDRTLSPLPKVADSS here?
Answer: Its growth estimate is < -0.25.

Question: YSEKTTQDVPSQRFHSASCH was tested. Which growth estimate did it give?
Answer: The growth estimate was < -0.25.

Question: YSERIIPEPPRAECPPGTAQ was tested. Which growth estimate did it give?
Answer: The growth estimate was < -0.25.

Question: YSFRNRSGVRSC was tested. Which growth estimate did it give?
Answer: Its growth estimate is -0.248.

Question: How did the growth estimate turn out when YSG was run?
Answer: The growth estimate was < -0.25.

Question: Which growth estimate does the source give for YSGLRRYWAEILGCDSLVET here?
Answer: Its growth estimate is < -0.25.

Question: YSGRCEMKHTRLQA was tested. Which growth estimate did it give?
Answer: Its growth estimate is < -0.25.

Question: For YSGVVKGELTEFFGCTGLTF, which growth estimate is on record?
Answer: The growth estimate was 0.0861.

Question: How did the growth estimate turn out when YSIPFNTGSHTANGMDKYWA was run?
Answer: The growth estimate was < -0.25.

Question: Which growth estimate does the source give for YSLPAGKCLTLTFHRYKSFS here?
Answer: The growth estimate was < -0.25.

Question: YSMG was tested. Which growth estimate did it give?
Answer: Its growth estimate is -0.246.

Question: Which growth estimate does the source give for YSNAVGLVNHHQGEFAGGAC here?
Answer: The growth estimate was < -0.25.

Question: How did the growth estimate turn out when YSPSPKDSVRTSRLCGNGIF was run?
Answer: Its growth estimate is < -0.25.

Question: Which growth estimate does the source give for YSRGLTYSVSGKRTAFHRLD here?
Answer: Its growth estimate is < -0.25.

Question: For YSRKVFSGSVPG, which growth estimate is on record?
Answer: Its growth estimate is < -0.25.

Question: YSRLGSVFLLSTIDVSVNRD was tested. Which growth estimate did it give?
Answer: Its growth estimate is < -0.25.

Question: Which growth estimate does the source give for YSRPVRKKWTLSV here?
Answer: Its growth estimate is < -0.25.

Question: How did the growth estimate turn out when YSRSCSWAGSSLGFRHMLDL was run?
Answer: Its growth estimate is < -0.25.

Question: How did the growth estimate turn out when YSSLTIGYLALNFYCKTVCC was run?
Answer: Its growth estimate is < -0.25.

Question: With YSSSALLYVRHPTASEYLP as the substance, how does the growth estimate read?
Answer: Its growth estimate is < -0.25.

Question: YSSSGSYIVRCVDFN was tested. Which growth estimate did it give?
Answer: The growth estimate was < -0.25.

Question: How did the growth estimate turn out when YSSTV was run?
Answer: The growth estimate was < -0.25.

Question: YST was tested. Which growth estimate did it give?
Answer: The growth estimate was < -0.25.

Question: YSTIATNQYAKPY was tested. Which growth estimate did it give?
Answer: Its growth estimate is < -0.25.

Question: With YSTMFSCRDLVVLQEGAPLC as the substance, how does the growth estimate read?
Answer: The growth estimate was < -0.25.

Question: Which growth estimate does the source give for YSVEMLQTRLPCCAKRCPLR here?
Answer: Its growth estimate is < -0.25.

Question: For YSVWLAIDEQSSPQ, which growth estimate is on record?
Answer: The growth estimate was -0.222.

Question: YTLTSRTVHSSRTLNHWECG was tested. Which growth estimate did it give?
Answer: Its growth estimate is < -0.25.

Question: Which growth estimate does the source give for YTR here?
Answer: The growth estimate was < -0.25.

Question: For YTRRPG, which growth estimate is on record?
Answer: The growth estimate was < -0.25.

Question: With YTRTMDSARLGESWLLTQCT as the substance, how does the growth estimate read?
Answer: The growth estimate was < -0.25.

Question: With YTSDLRRAVG as the substance, how does the growth estimate read?
Answer: The growth estimate was < -0.25.

Question: With YTSESHPTFVGDRKSERRPR as the substance, how does the growth estimate read?
Answer: Its growth estimate is < -0.25.

Question: With YTTGCRTQSRCGCLPP as the substance, how does the growth estimate read?
Answer: Its growth estimate is < -0.25.
